From PubChem BioAssay AID2417 (National Center for Advancing Translational Sciences (NCATS), 2010)
Out of some 140,000 compounds screened, about 4,300 (3.1%) were called active. The shares of active, inactive and inconclusive entries below differ from those in the screen.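 How the source made its calls: active means readout at or below -70, meaning at least 70% loss of cells showing the perinucleolar compartment, a nuclear body marking cancer cells; inconclusive means readout between -30 and a set limit; inactive means the rest.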

Assay: High Content Assay for Compounds that inhibit the Assembly of the Perinucleolar Compartment;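 further: plate controls were DMSO wells for no effect and camptothecin positive control wells for full effect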
Conditions: PC3M PTB-GFP, PNC prevalence imaging, 16 h; at 10 µM; hits give low values
Procedure, shortened: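 PC3M cells stably expressing PTB-GFP, 750–1000 cells/well, treated 16 h at 37 °C with compound (23 nl of library stock), in duplicate. After paraformaldehyde fixation and Hoechst stain, imaged at 20x; PNC prevalence scored by image analysis.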

Row | Compound | activity change (PNC), negative = inhibition
1 | COCCn1c(CN2CCN(c3ccc(OC)cc3)CC2)nc2c1c(=O)n(C)c(=O)n2C | inconclusive: -30.1%
2 | N#Cc1cc(S(=O)(=O)c2ccccc2)c(N)[nH]c1=O | active: -113%
3 | Cc1ccc2nc(C)cc(C(=O)OCC(=O)c3ccc(Cl)c([N+](=O)[O-])c3)c2c1 | inactive: 5.45%
4 | Cc1cc2cc(CN(CCCO)S(=O)(=O)c3cccc4nsnc34)c(=O)[nH]c2cc1C | inactive: 27.7%
5 | O=C(CC(NS(=O)(=O)c1ccc(Cl)cc1)c1ccco1)N1CCc2ccccc21 (configuration not stated) | inconclusive: -72.4%
6 | O=C(NC(C(=O)c1ccccc1)N1CCCCC1)c1ccccc1 (configuration not stated) | inconclusive: -55.7%
7 | CS(=O)(=O)c1ccc2nc(NC(NC(=O)c3ccco3)(C(F)(F)F)C(F)(F)F)sc2c1 | inactive: 26.7%
8 | Cc1ccc(N2CCN(C(=S)c3ccc(N(C)C)cc3)CC2)cc1 | inconclusive: -51%
9 | Cc1nnc2ccc(N3CCCC3)nn12 | inconclusive: -49.3%
10 | CN(C)N1C(=O)CC(NNC(=O)c2ccncc2)C1=O (configuration not stated) | inactive: 10.5%
11 | COc1ccc(CCSc2nnc(C3CCCCC3)n2N)cc1 | inactive: 22.3%
12 | CCC(=O)N(Cc1cc(=O)[nH]c2ccccc12)c1cccc(C)c1 | inactive: 1.97%
13 | CCCCN1C(=O)C2(NNc3ccccc3O2)c2ccccc21 (configuration not stated) | inconclusive: -69.3%
14 | O=C(COC(=O)c1ccccc1C(=O)c1ccc(Cl)c([N+](=O)[O-])c1)NC1CCCCCC1 | inactive: -22.2%
15 | COc1cc(C)c(NC(=S)Nc2ccc(Cl)c(Cl)c2)cc1OC | inconclusive: -54.2%
16 | O=C(Nc1ccccc1)c1cc2ccccc2o1 | active: -100%
17 | CC(=O)N1CC(c2ccccc2)C(c2ccc(Cl)cc2)=N1 (configuration not stated) | inconclusive: -49.3%
18 | COc1ccc(NC(=O)c2cc(OC)c(OC)c(OC)c2Br)cc1OC | inconclusive: -53.7%
19 | NC(=O)Cc1ccc(Nc2nnc(-c3ccc(O)cc3)c3ccccc23)cc1 | inactive: 56.5%
20 | Cn1c(=O)cc(SCC(=O)NCc2cccnc2)c2ccccc21 | inconclusive: -67.9%
21 | CC(NC(=O)c1cccs1)c1ccc2c(c1)OCO2 (configuration not stated) | inconclusive: -57.8%
22 | COc1cccc(-n2nc(-c3ccnn3-c3ccccc3)c(=O)n(C)c2=O)c1 | inactive: 44.4%
23 | CC1CC1c1ccc(/C=C(\C#N)C(=O)Nc2ccc(Cl)cc2)o1 (configuration not stated) | active: -125%

Random excerpt: five entries already listed
Row | Compound | activity change (PNC), negative = inhibition
22 | COc1cccc(-n2nc(-c3ccnn3-c3ccccc3)c(=O)n(C)c2=O)c1 | inactive: 44.4%
20 | Cn1c(=O)cc(SCC(=O)NCc2cccnc2)c2ccccc21 | inconclusive: -67.9%
1 | COCCn1c(CN2CCN(c3ccc(OC)cc3)CC2)nc2c1c(=O)n(C)c(=O)n2C | inconclusive: -30.1%
10 | CN(C)N1C(=O)CC(NNC(=O)c2ccncc2)C1=O (configuration not stated) | inactive: 10.5%
18 | COc1ccc(NC(=O)c2cc(OC)c(OC)c(OC)c2Br)cc1OC | inconclusive: -53.7%

Next structures follow.

Row | Compound | activity change (PNC), negative = inhibition
24 | O=C(Oc1cncc(Cl)c1)c1ccco1 | active: -80.6%
25 | Cc1cccc(OCc2nc(-c3cccnc3)no2)c1 | inactive: 17.6%
26 | COC(=O)c1ccc(/C=C(\C#N)C(=O)NC(C)c2ccccc2)cc1 (configuration not stated) | active: -99.9%
27 | CC(C)OC(=O)CSc1nc2ncccc2[nH]1 | inconclusive: -33.1%
28 | Cc1cc2nc(-c3ccco3)cc(C(F)(F)F)n2n1 | inconclusive: -51.2%
29 | COc1ccccc1OCCCOc1c(C)cc(C)cc1Br | inactive: 49.1%
30 | CC1=[N+]([O-])C(C)(C)CC(C)(C)c2ccccc21 | inconclusive: -35.3%
31 | CCOC(=O)N1CCN(c2c(NCc3cccs3)c(=O)c2=O)CC1 | inactive: 6.97%
32 | CCOC(=O)c1ccc(NC(=O)CC2SCCNC2=O)cc1 (configuration not stated) | inconclusive: -52.1%
33 | CCOC(=O)c1c(N)sc(N)c1C(=O)OCC | inconclusive: -47.5%
34 | CCOC(=O)c1c(C)[nH]c(C(=O)/C(C#N)=C/c2ccc(OCC)cc2)c1C | inconclusive: -55.4%
35 | O=C(c1ccco1)N1CCN(C(=O)c2cccc3c2C(=O)N(Cc2cccnc2)C3)CC1 | inconclusive: -48.3%
36 | CC(=O)Oc1ccccc1-c1nc(C)nc(N(C)C(C)=O)n1 | inconclusive: -36.1%
37 | CCn1c(C(C#N)/C(=N\S(=O)(=O)c2cccs2)c2ccccc2)nc2ccccc21 (configuration not stated) | inactive: 9.8%
38 | COc1ccc(-c2nnc(SCC(=O)NC(C)C)n2CC2CCCO2)cc1OC (configuration not stated) | inconclusive: -79.2%
39 | O=C(CN1C(=O)c2ccccc2S1(=O)=O)Nc1cccnc1 | inconclusive: -51.2%
40 | CCOc1ccc(NC(=O)C2CCCN(S(=O)(=O)c3cccc4nsnc34)C2)cc1 (configuration not stated) | inactive: 11.1%
41 | Clc1ccc(-c2cn3nc4c(nc3n2)CCCC4)cc1 | inactive: 29.6%
42 | Cc1nc2c(C)cccn2c1/C(O)=C1\C(=O)C(=O)N(CCN2CCOCC2)C1c1ccncc1 (configuration not stated) | inconclusive: -45.7%
43 | CCCc1cc(=O)oc2cc(OCc3cccc(OC)c3)c(Cl)cc12 | inconclusive: -40.9%
44 | O=C1CC(C(=O)Nc2ccccc2)S/C(=N\N=C\c2ccco2)N1 (configuration not stated) | inconclusive: -79.9%
45 | Cc1ccc(C(=O)CSc2nc3ccccc3c(=O)n2N)o1 | inconclusive: -31.5%
46 | O=C(CCN1CCN(c2ccccc2)CC1)NNC(=O)c1cccc2ccccc12 | inconclusive: -34.6%

Row | Compound | activity change (PNC), negative = inhibition
47 | Cc1ccc(Cl)cc1N1CCN(C(=O)Cc2ccc(-n3c(=O)[nH]c4ccsc4c3=O)cc2)CC1 | inactive: -17.7%
48 | O=C(N/N=C/c1ccc(OC(=O)c2cccs2)cc1)c1cccc(F)c1 | inconclusive: -53.7%
49 | Clc1ccc(OCc2cc(-c3ccccc3)no2)c(Cl)c1 | inconclusive: -36.4%
50 | COc1ccc(OCC(=O)N(C)Cc2ccccc2)cc1 | inactive: 32.5%
51 | CN(C)S(=O)(=O)c1cccc(C(=O)OCC(=O)Nc2sccc2C#N)c1 | inactive: 1.32%
52 | CCC(=O)Nc1ccc(/C(C)=N\NS(=O)(=O)c2ccc(C)cc2)cc1 | inactive: 81.7%
53 | CCOc1ccc(NC(=O)NCCCSC2CCCCC2)cc1 | inconclusive: -46.5%
54 | Cc1ccc(C(=O)COC(=O)c2cnccn2)cc1 | active: -102%
55 | CNc1ccccc(-c2ccc3cc4c(cc3n2)OCO4)c1=O | active: -109%
56 | Cc1nc(-c2ccccc2)cn2c1nc1ccccc12 | inconclusive: -45%
57 | O=C(NCc1cccnc1)Nc1cccc(NC(=O)NCc2cccnc2)c1 | inconclusive: -60.1%
58 | O=S(=O)(c1ccc(Cl)cc1)N1CCN=C1SCc1cccc(Cl)c1 | inactive: 22.7%
59 | Nc1c(C(=O)NCCN2CCOCC2)c2nc3ccccc3nc2n1CCc1ccccc1 | inconclusive: -51.7%
60 | O=C(Oc1cccc(NC(=O)c2ccco2)c1)c1ccc(Br)c(S(=O)(=O)N2CCCCC2)c1 | inactive: -26.6%
61 | C/C(=N\NC(N)=S)C1(C)CCCCC1 | inconclusive: -40.6%
62 | COc1ccc(N=C2S/C(=C\c3ccc(N4CCOCC4)o3)C(=O)N2CCc2c[nH]c3ccccc23)cc1 | inconclusive: -50.6%
63 | CC1=C(C)CC(C(=O)NNC(=O)c2cccc(Cl)c2)C(C(=O)O)C1 (configuration not stated) | inconclusive: -39.3%
64 | Cn1c(CNc2nc3ccccc3n2C)nc2ccccc21 | inconclusive: -42.3%
65 | O=C(Cn1c2ccccc2c(=O)c2ccccc21)Nc1cccc(F)c1 | inactive: -25.6%
66 | Cc1cc(C)c2cc(C#N)c(SCC(=O)NCC3CCCO3)nc2c1 (configuration not stated) | inconclusive: -52.9%
67 | O=[N+]([O-])c1cc(/C=N\Nc2nccs2)ccc1O | inactive: -11.1%
68 | COc1ccc(OC)c(N(CC(=O)Nc2cccnc2)S(=O)(=O)c2ccccc2)c1 | inactive: 5.25%
69 | COCCNc1nc(=S)[nH]c2cc(OC)c(OC)cc12 | inconclusive: -34.9%

Row | Compound | activity change (PNC), negative = inhibition
70 | Cc1noc(C)c1C(=O)N1CCCc2ccccc21 | inactive: 26.4%
71 | Cc1ccc(O)c(NC(=O)c2cccc(S(=O)(=O)N3CCCCC3)c2)c1 | inactive: -28.8%
72 | CCCn1c(SCC(=O)N2c3ccccc3CC2C)nnc1-c1ccco1 (configuration not stated) | active: -100%
73 | c1csc(CSc2nc3ccccc3s2)c1 | inactive: -26.9%
74 | O=C(OCc1cc2ccccc2[nH]c1=O)C1CCCCC1 | inconclusive: -48.2%
75 | Cc1cc(S(=O)(=O)N(Cc2ccc3c(c2)OCO3)CC2CCCO2)ccc1-n1cnnn1 (configuration not stated) | inactive: 43.1%
76 | CCOC(=O)C(C)Sc1nc2c(c(=O)[nH]c(=O)n2C)n1CCc1ccccc1 (configuration not stated) | inactive: -5.4%
77 | CCCCNC(=O)CCCCCNS(=O)(=O)c1ccc(OC)cc1 | inactive: -20.5%
78 | CCOC(=O)c1c(-c2ccco2)csc1NC(=O)CSc1nnc(N)s1 | inactive: 50.8%
79 | Cc1cc(C(=O)NCCc2ccccc2)ccc1[N+](=O)[O-] | inactive: 20.8%
80 | CCCSC1=C(C#N)C(c2ccccc2OCC)CC(=O)N1 (configuration not stated) | inconclusive: -58.5%
81 | COc1ccc(CC(=O)Nc2nc(C)cs2)cc1OC | inconclusive: -64.2%
82 | Cc1cc2c(c(C)nn2-c2ccccc2)c(=O)o1 | inconclusive: -36.5%
83 | CC1=NN(c2ccccc2)C(=O)C1C(=O)c1ccccc1 (configuration not stated) | inactive: 31.3%
84 | Cn1c(=O)c2c(ncn2CC(=O)OCC(=O)NCc2ccc(Cl)cc2)n(C)c1=O | inconclusive: -69.3%
85 | CC(=O)Nc1ccc(S(=O)(=O)NCCC(=O)Nc2ccc(C)c(Cl)c2)cc1 | inconclusive: -64.6%
86 | O=C(Nc1ccc2c(c1)OCO2)c1cnn2c(C(F)(F)F)cc(-c3ccco3)nc12 | inactive: 1.16%
87 | O=C(NC(Cc1ccccc1)c1ccc2c(c1)OCCCO2)c1ccc(F)cc1 (configuration not stated) | inactive: -17.1%
88 | Cc1ccc(-c2nnc(NCc3nc4ccccc4[nH]3)c3ccccc23)cc1S(=O)(=O)N1CCCCC1 | inconclusive: -38.1%
89 | Cc1ccccc1OCC(O)Cn1nnc2ccccc21 (configuration not stated) | active: -100%
90 | COCCNC(=O)COC(=O)c1nsc(Cl)c1Cl | active: -109%
91 | CCCOc1ccc(N2C(=O)CC(NCCNc3ccc(S(=O)(=O)CC)cc3)C2=O)cc1 (configuration not stated) | inconclusive: -47.2%
92 | CCOC(=O)CN1C(=O)NC2NC(=O)NC21 (configuration not stated) | inconclusive: -65.6%
